# Data as given in PubChem BioAssay AID248 (DTP/NCI, 2004).
# The list does not hold the whole screen: it is rich in T/C values a quarter to a half above the control, in often repeated tests (any T/C) and in doses without a T/C. Further doses and runs are listed elsewhere. T/C gives the treated animals as a percentage of the vehicle group. Some entries give survivors of the animals treated and no T/C: the source files T/C as zero there, which appears to mark a toxic dose or a test without result, not a measured value. Some survivor counts are full or nearly so, which does not show that the dose was tolerated: the source hardly ever lists a survival T/C far under the control, and the zero likely stands for such cases as well. Counts of survivors are from the toxicity check (mostly the fifth day) where no day follows; animals may have died later. Schedules are NCI's codes, taken here to give the interval after Q, in days (D) or hours (H), and the number of doses after X. Some schedules carry Z or #; the key to these is not given. For survival time, this PubChem deposit counts one and a half times the control or more as active, and values a quarter to a half above the control carry no call in these data; other NCI protocols may use other cut-offs. Marks such as (2×) say how often a value occurs here. Some doses were run more than once; the values are given in rising order. Some T/C values carry the count of animals alive at the toxicity check (mostly the fifth day); where none is given, no animal had died by that day.
# Tested on: L1210 leukemia ip in BDF1 mice, survival T/C
# Experiment: NCI In Vivo Anticancer Drug Screen. Data for tumor model L1210 Leukemia (intraperitoneal) in B6D2F1 (BDF1) mice
# Conditions: T/C endpoint: mean survival time, higher T/C = longer survival
# [1] = dose: 200.0 mg/kg/injection, schedule: Q04DX003 (ip), vehicle: saline
# [2] = dose: 400.0 mg/kg/injection, schedule: Q04DX003 (ip), vehicle: saline
# [3] = dose: 400.0 mg/kg/injection, schedule: Q01DX009 (ip), vehicle: saline
# [4] = dose: 400.0 mg/kg/injection, schedule: Q04DX003 (ip), vehicle: Klucel (hydroxypropylcellulose) (HPC)
# [5] = dose: 400.0 mg/kg/injection, schedule: Q01DX001 (ip), vehicle: saline with Tween-80
# [6] = dose: 100.0 mg/kg/injection, schedule: Q01DX009 (ip), vehicle: Klucel (hydroxypropylcellulose) (HPC)
# [7] = dose: 200.0 mg/kg/injection, schedule: Q01DX009 (ip), vehicle: Klucel (hydroxypropylcellulose) (HPC)
# [8] = dose: 400.0 mg/kg/injection, schedule: Q01DX009 (ip), vehicle: Klucel (hydroxypropylcellulose) (HPC)
# [9] = dose: 300.0 mg/kg/injection, schedule: Q01DX001 (ip), vehicle: saline
# [10] = dose: 400.0 mg/kg/injection, schedule: Q01DX001 (ip), vehicle: saline
# [11] = dose: 200.0 mg/kg/injection, schedule: Q01DX001 (ip), vehicle: Klucel (hydroxypropylcellulose) (HPC)
# [12] = dose: 400.0 mg/kg/injection, schedule: Q01DX001 (ip), vehicle: Klucel (hydroxypropylcellulose) (HPC)
# [13] = dose: 100.0 mg/kg/injection, schedule: Q04DX002 (ip), vehicle: saline with Tween-80
# [14] = dose: 400.0 mg/kg/injection, schedule: Q04DX002 (ip), vehicle: saline with Tween-80
structure (smiles),measurement,setting,value
C1CC2CCC[N+]3=C2C(C1)CCC3 (configuration not stated),survivor count,"dose: 100.0 mg/kg/injection, schedule: Q04DX003 (ip), vehicle: saline",0 of 6
same,survivor count,[1],0 of 6
same,survivor count,[2],0 of 6
NC1C2C3C=CC(C3)C12 (configuration not stated),survivor count,[3],0 of 6
C=C(C)CSc1ncnc2nc[nH]c12,survivor count,"dose: 180.0 mg/kg/injection, schedule: Q01DX Z (ip), vehicle: other",3 of 6
COc1ccc(OC)c(NC(=O)N(CCC#N)C2CCCCC2)c1,survivor count,[4],6 of 6
NNc1nncc(=O)[nH]1,survivor count,[5],2 of 6
N#CC(C(N)=O)c1ccccc1 (configuration not stated),survivor count,"dose: 200.0 mg/kg/injection, schedule: Q04DX003 (ip), vehicle: saline with Tween-80",4 of 6
same,survivor count,"dose: 400.0 mg/kg/injection, schedule: Q04DX003 (ip), vehicle: saline with Tween-80",0 of 6
c1ccc(-c2nc3cnccc3o2)cc1,survivor count,[6],1 of 6
same,survivor count,[7],0 of 6
same,survivor count,[8],0 of 6
O=C(O)c1ccc(N=NNc2ccccc2)cc1,survivor count,"dose: 100.0 mg/kg/injection, schedule: Q01DX001 (ip), vehicle: saline with Tween-80",1 of 3
same,survivor count,"dose: 200.0 mg/kg/injection, schedule: Q01DX001 (ip), vehicle: saline with Tween-80",1 of 3
same,survivor count,[5],0 of 3
NC1C(=O)NC(=O)NC1=O,survivor count,"dose: 400.0 mg/kg/injection, schedule: Q04DX002 (ip), vehicle: Klucel (hydroxypropylcellulose) (HPC)",0 of 3
Cc1ccc(N=Nc2sc(N)nc2C)c(C)c1,survivor count,[9],0 of 6
CCCCCCCCCCCCNC(=O)CCl,survivor count,[4],6 of 6
O=C(Nc1ccc(C2=NCCN2)cc1)C1CCC(C(=O)Nc2ccc(C3=NCCN3)cc2)CC1 (configuration not stated),T/C,"dose: 1.87 mg/kg/injection, schedule: Q01DX Z (ip), vehicle: carboxymethylcellulose (CMC)",132 % of control
same,T/C,"dose: 5.6 mg/kg/injection, schedule: Q01DX015 (ip), vehicle: methylcellulose (MC)",137 % of control
same,T/C,"dose: 7.5 mg/kg/injection, schedule: Q01DX Z (ip), vehicle: carboxymethylcellulose (CMC)",135 % of control
same,T/C,"dose: 62.0 mg/kg/injection, schedule: Q01DX Z (ip), vehicle: carboxymethylcellulose (CMC)",142 % of control
same,survivor count,"dose: 250.0 mg/kg/injection, schedule: Q01DX Z (ip), vehicle: carboxymethylcellulose (CMC)",3 of 6
same,T/C,"dose: 500.0 mg/kg/injection, schedule: Q01DX001 (ip), vehicle: methylcellulose (MC)","138, 150, 151, 200 % of control"
same,survivor count,"dose: 500.0 mg/kg/injection, schedule: Q01DX Z (ip), vehicle: carboxymethylcellulose (CMC)",2 of 6
same,T/C,"dose: 1000.0 mg/kg/injection, schedule: Q01DX001 (ip), vehicle: methylcellulose (MC)","171, 181, 213, 303 % of control"
c1ccc2occc2c1,survivor count,"dose: 200.0 mg/kg/injection, schedule: Q01DX001 (ip), vehicle: saline",1 of 4
same,survivor count,[10],0 of 4
CC(=O)NC1CCC(C)CC1 (configuration not stated),survivor count,[11],1 of 6
same,survivor count,[12],0 of 6
CC1=NC(C#N)=C(C#N)N=C(c2ccccc2)C1,survivor count,"dose: 400.0 mg/kg/injection, schedule: Q01DX009 (ip), vehicle: gum acacia",6 of 6
Nc1nc(Cl)nc2c1ncn2C1OC(CO)C(O)C1O (configuration not stated),T/C,"dose: 75.0 mg/kg/injection, schedule: Q01DX009 (ip), vehicle: saline with Tween-80",128 % of control [5 of 6 alive]
same,T/C,"dose: 132.0 mg/kg/injection, schedule: Q04DX003 (ip), vehicle: saline",126 % of control (2×)
same,T/C,"dose: 150.0 mg/kg/injection, schedule: Q01DX009 (ip), vehicle: saline with Tween-80",129 % of control [4 of 6 alive]
same,T/C,"dose: 150.0 mg/kg/injection, schedule: Q01DX009 (ip), vehicle: saline",143 % of control
same,T/C,[1],"125 [5 of 6 alive], 134, 139 % of control"
same,T/C,"dose: 300.0 mg/kg/injection, schedule: Q04DX003 (ip), vehicle: saline",134 % of control
same,survivor count,[10],3 of 6
Cc1n(CCBr)c([N+](=O)[O-])c[n+]1C1N=C(c2ccccc2Cl)c2cc(Cl)ccc2NC1=O (configuration not stated),survivor count,[6],3 of 3
CN(C)c1ccc(/C=C/C(=O)c2ccc([N+](=O)[O-])cc2)cc1,survivor count,"dose: 25.0 mg/kg/injection, schedule: Q01DX009 (ip), vehicle: gum acacia",6 of 6
same,survivor count,"dose: 50.0 mg/kg/injection, schedule: Q01DX009 (ip), vehicle: gum acacia",6 of 6
same,survivor count,"dose: 200.0 mg/kg/injection, schedule: Q01DX009 (ip), vehicle: gum acacia",6 of 6
OC1c2ccccc2C(c2ccccc2)C1c1ccccc1 (configuration not stated),survivor count,"dose: 100.0 mg/kg/injection, schedule: Q04DX003 (ip), vehicle: saline with Tween-80",6 of 6
CC(C)(F)C(Br)C(=O)O (configuration not stated),survivor count,[13],3 of 3
same,survivor count,[14],3 of 3
Cc1ccc2c(ccc3c[n+]4ccccc4c(C)c32)c1,survivor count,"dose: 50.0 mg/kg/injection, schedule: Q01DX001 (ip), vehicle: carboxymethylcellulose (CMC)",1 of 4
same,survivor count,"dose: 100.0 mg/kg/injection, schedule: Q01DX001 (ip), vehicle: carboxymethylcellulose (CMC)",0 of 4
NOCc1ccc(CON)cc1,survivor count,[2],3 of 4
CC(=O)C(C#N)C(C)=O.CC(=O)C(C#N)C(C)=O.[Mn],survivor count,"dose: 200.0 mg/kg/injection, schedule: Q01DX009 (ip), vehicle: saline",0 of 6
same,survivor count,[3],0 of 6
same,survivor count,[2],3 of 6
O=C(Nc1ccc(C(=O)Nc2ccc(C3=NCCCN3)cc2)cc1)Nc1ccc(C2=NCCCN2)cc1,survivor count,"dose: 15.0 mg/kg/injection, schedule: Q01DX Z (ip), vehicle: other",2 of 6
same,survivor count,"dose: 30.0 mg/kg/injection, schedule: Q01DX Z (ip), vehicle: other",0 of 6
same,survivor count,"dose: 60.0 mg/kg/injection, schedule: Q01DX Z (ip), vehicle: other",0 of 6
same,survivor count,"dose: 120.0 mg/kg/injection, schedule: Q01DX Z (ip), vehicle: other",0 of 6
Cc1c([N+](=O)[O-])cc(C(C)(C)C)c(OC(=O)Nc2ccc(Cl)cc2)c1[N+](=O)[O-],survivor count,[4],0 of 6
CC(C)OC(=O)c1ccc(N)cc1S(N)(=O)=O,survivor count,"dose: 200.0 mg/kg/injection, schedule: Q01DX001 (ip), vehicle: other",2 of 4
same,survivor count,"dose: 400.0 mg/kg/injection, schedule: Q01DX001 (ip), vehicle: other",0 of 4
CC(=O)Oc1ccccc1C(C)=O,survivor count,[8],2 of 6
CC1=C(/C=C/C(C)=C/C=C/C(C)=C/C=O)C(C)(C)CCC1,survivor count,"dose: 100.0 mg/kg/injection, schedule: Q01DX009 (ip), vehicle: steroid suspending solution",5 of 6
CC(C)(SCc1ccccc1)C(N)C(=O)O (configuration not stated),survivor count,[9],0 of 6
CC(COC(=O)c1ccc(N)cc1)NC1CCCC1 (configuration not stated),survivor count,[9],1 of 6
CC(=O)C(CN(C)C)c1ccccc1 (configuration not stated),survivor count,"dose: 100.0 mg/kg/injection, schedule: Q01DX009 (ip), vehicle: saline",6 of 6
NC(=S)N/N=C/c1ccc(Cl)cc1Cl,survivor count,"dose: 100.0 mg/kg/injection, schedule: Q01DX001 (ip), vehicle: Klucel (hydroxypropylcellulose) (HPC)",1 of 6
same,survivor count,[11],0 of 6
same,survivor count,[12],0 of 6
C=C(C)C1CCC2(CO)CCC3(C)C(CCC4C5(C)CCC(OC6CCCCO6)C(C)(C)C5CCC43C)C12 (configuration not stated),survivor count,[13],3 of 3
Cc1ccc2c(Br)cc(Br)c(O)c2n1,survivor count,[7],1 of 6
same,survivor count,[8],1 of 6
N#CC(c1c[nH]c2ccccc12)N1CCOCC1 (configuration not stated),survivor count,[13],0 of 3
same,survivor count,"dose: 200.0 mg/kg/injection, schedule: Q04DX002 (ip), vehicle: saline with Tween-80",0 of 3
same,survivor count,[14],0 of 3
